In article PMC9468603:
Results are given in words; binding and its absence hold for the method and conditions named. Binding seen in cells or lysates may run through a third protein. A result given as binding can be weak or reduced; the word gives no strength.

Target: His-tagged Shp2 N-SH2 domain recombinant protein (UniProt Q06124)
Assay: pull-down; FA fractions of MEFs incubated with or without 400 U λPPase for 30 min before pull-down with His-N-SH2 and Ni-beads; α-actinin-4 detected by Western blotting; only the target purified

binding: binds
Substance: α-actinin-4 (endogenous, mouse) (from UniProt P57780 1-912)
